Binding data for two molecules are collected here from paper PMC10020529.

By UniProt entry, the sequences of proteins in these tests, tags left out.
UniProt P24385: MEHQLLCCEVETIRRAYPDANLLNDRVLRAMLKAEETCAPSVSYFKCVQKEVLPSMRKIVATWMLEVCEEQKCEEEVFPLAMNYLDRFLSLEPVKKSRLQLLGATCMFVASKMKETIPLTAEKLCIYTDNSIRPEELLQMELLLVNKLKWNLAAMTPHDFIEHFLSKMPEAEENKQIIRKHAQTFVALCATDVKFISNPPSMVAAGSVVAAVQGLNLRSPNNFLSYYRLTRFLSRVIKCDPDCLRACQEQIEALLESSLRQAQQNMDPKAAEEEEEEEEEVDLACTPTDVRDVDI

Results are given in words; binding and its absence hold for the method and conditions named. Binding seen in cells or lysates may run through a third protein. Some entries that bind do so weakly or less than the wild type. Tags and fused reporters may be left off the sequences shown.

In one assay the target is T1, 3 × Flag-FBXO43 (UniProt Q4G163).
T1 sequence: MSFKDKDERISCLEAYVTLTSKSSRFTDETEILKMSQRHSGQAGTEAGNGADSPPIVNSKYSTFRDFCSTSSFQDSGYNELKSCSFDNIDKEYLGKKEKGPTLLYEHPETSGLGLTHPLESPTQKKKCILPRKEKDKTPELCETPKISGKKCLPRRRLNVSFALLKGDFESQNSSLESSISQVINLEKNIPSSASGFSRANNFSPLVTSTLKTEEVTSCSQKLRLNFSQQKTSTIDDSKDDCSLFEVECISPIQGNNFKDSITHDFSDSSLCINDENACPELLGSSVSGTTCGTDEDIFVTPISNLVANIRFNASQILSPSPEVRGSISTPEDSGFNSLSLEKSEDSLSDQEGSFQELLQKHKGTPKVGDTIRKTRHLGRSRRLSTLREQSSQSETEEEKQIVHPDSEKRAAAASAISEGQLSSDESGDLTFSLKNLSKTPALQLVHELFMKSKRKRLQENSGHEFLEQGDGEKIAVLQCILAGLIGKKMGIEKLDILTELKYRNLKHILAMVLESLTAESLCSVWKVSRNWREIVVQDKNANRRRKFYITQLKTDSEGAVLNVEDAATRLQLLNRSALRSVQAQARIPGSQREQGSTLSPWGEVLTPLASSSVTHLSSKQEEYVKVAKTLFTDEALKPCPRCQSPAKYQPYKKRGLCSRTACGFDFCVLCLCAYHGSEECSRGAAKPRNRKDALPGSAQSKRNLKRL
Put plainly: co-IP; Huh7 and LM3 cells transfected with 3 × Flag-FBXO43 for 48 h; lysate immunoprecipitated with anti-Flag (normal IgG as control), Protein A/G PLUS-Agarose, 4°C overnight; washed with 20 mM Tris-HCl pH 8.0, 100 mM NaCl, 1% NP-40; Western blot. In general terms: In western blotting, separated proteins are transferred to a membrane and probed.

Assay [1] deals with cyclin D1 (CCND1) (human (endogenous in Huh7 and LM3)) (UniProt P24385). Put plainly: co-IP; Huh7 and LM3 cells transfected with indicated plasmids; lysate immunoprecipitated with anti-CCND1 (normal IgG as control), Protein A/G PLUS-Agarose, 4°C overnight; washed with 20 mM Tris-HCl pH 8.0, 100 mM NaCl, 1% NP-40; Western blot.

Turning to “cyclin D1 (CCND1) (from UniProt P24385 1-295)”, the binding result in the assay with 3 × Flag-FBXO43 was “binds”.

B1: 3 × Flag-FBXO43 (protein, UniProt Q4G163 1-708)
chain: MSFKDKDERISCLEAYVTLTSKSSRFTDETEILKMSQRHSGQAGTEAGNGADSPPIVNSKYSTFRDFCSTSSFQDSGYNELKSCSFDNIDKEYLGKKEKGPTLLYEHPETSGLGLTHPLESPTQKKKCILPRKEKDKTPELCETPKISGKKCLPRRRLNVSFALLKGDFESQNSSLESSISQVINLEKNIPSSASGFSRANNFSPLVTSTLKTEEVTSCSQKLRLNFSQQKTSTIDDSKDDCSLFEVECISPIQGNNFKDSITHDFSDSSLCINDENACPELLGSSVSGTTCGTDEDIFVTPISNLVANIRFNASQILSPSPEVRGSISTPEDSGFNSLSLEKSEDSLSDQEGSFQELLQKHKGTPKVGDTIRKTRHLGRSRRLSTLREQSSQSETEEEKQIVHPDSEKRAAAASAISEGQLSSDESGDLTFSLKNLSKTPALQLVHELFMKSKRKRLQENSGHEFLEQGDGEKIAVLQCILAGLIGKKMGIEKLDILTELKYRNLKHILAMVLESLTAESLCSVWKVSRNWREIVVQDKNANRRRKFYITQLKTDSEGAVLNVEDAATRLQLLNRSALRSVQAQARIPGSQREQGSTLSPWGEVLTPLASSSVTHLSSKQEEYVKVAKTLFTDEALKPCPRCQSPAKYQPYKKRGLCSRTACGFDFCVLCLCAYHGSEECSRGAAKPRNRKDALPGSAQSKRNLKRL
On to B1, for which the binding entry in assay [1] is reported as “binds”.
